For this experiment, the target named is RNA DEAD box helicase p68, P17844. Put plainly: co-IP; in vitro; in vitro translated CTCF and p68 with antisense or sense SRA RNA; IP with p68 antibody or CTCF antibody, western blot. Particulars: remark: other sources report otherwise. In general terms: A western blot detects proteins with antibodies after separation by electrophoresis.

Results are given in words; binding and its absence hold for the method and conditions named. Binding seen in cells or lysates may run through a third protein.

B1: CTCF, P49711 1-727 (protein)
chain: MEGDAVEAIVEESETFIKGKERKTYQRRREGGQEEDACHLPQNQTDGGEVVQDVNSSVQMVMMEQLDPTLLQMKTEVMEGTVAPEAEAAVDDTQIITLQVVNMEEQPINIGELQLVQVPVPVTVPVATTSVEELQGAYENEVSKEGLAESEPMICHTLPLPEGFQVVKVGANGEVETLEQGELPPQEDPSWQKDPDYQPPAKKTKKTKKSKLRYTEEGKDVDVSVYDFEEEQQEGLLSEVNAEKVVGNMKPPKPTKIKKKGVKKTFQCELCSYTCPRRSNLDRHMKSHTDERPHKCHLCGRAFRTVTLLRNHLNTHTGTRPHKCPDCDMAFVTSGELVRHRRYKHTHEKPFKCSMCDYASVEVSKLKRHIRSHTGERPFQCSLCSYASRDTYKLKRHMRTHSGEKPYECYICHARFTQSGTMKMHILQKHTENVAKFHCPHCDTVIARKSDLGVHLRKQHSYIEQGKKCRYCDAVFHERYALIQHQKSHKNEKRFKCDQCDYACRQERHMIMHKRTHTGEKPYACSHCDKTFRQKQLLDMHFKRYHDPNFVPAAFVCSKCGKTFTRRNTMARHADNCAGPDGVEGENGGETKKSKRGRKRKMRSKKEDSSDSENAEPDLDDNEDEEEPAVEIEPEPEPQPVTPAPPPAKKRRGRPPGRTNQPKQNQPTAIIQVEDQNTGAIENIIVEVKKEPDAEPAEGEEEEAQPAATDAPNGDLTPEMILSMMDR
Take B1: the binding result was “no binding”.

For the origin of these results see article PMC4619771.
